Patent US20210386726A1, “METHOD FOR INHIBITING CORONAVIRUS INFECTION AND REPLICATION” (CHANG GUNG UNIVERSITY, priority 2020, published 2021)
At least one compound was matched to its structure with a doubt left.

How the values were obtained:
[1] = system: HCoV-229E; format: cell-based, human coronavirus 229E
[2] = system: HCoV-229E; format: cell-based, human coronavirus 229E; remark: listed apart in the source
[3] = system: HCoV-OC43; format: cell-based, human coronavirus OC43
[4] = system: SARS-CoV-2; assay: Immunofluorescence microscopy of spike and nucleocapsid proteins in SARS-CoV-2-infected LLC-MK2 cells; format: cell-based, severe acute respiratory syndrome coronavirus 2; details: 20 μM pretreatment 1 hour, m.o.i. 0.01, 4 d.p.i., vs 0.08% DMSO infection control

Compound: CN(CCOc1ccc(CC2SC(=O)NC2=O)cc1)c1ccccn1 (stereo not shown) [rosiglitazone, Rosiglitazone]
- cell viability of HCoV-229E-infected LLC-MK2 cells [1]: capable of increasing cell viability
- viral yield (virus titer) of HCoV-229E [2]: significantly lower
- viral yield (virus titer) of HCoV-OC43 [3]: significantly lower
- viral replication (expression of spike and nucleocapsid proteins of SARS-CoV-2) [4]: significantly reduced
